Experimental data: article PMC3008712
Results are given in words; binding and its absence hold for the method and conditions named. Some results given as binding are weak or reduced against the parent protein; the word gives no strength. Values belong to the molecule of their own block, whether it stands above or below them.

Key:
[1] = target: recombinant human γD-crystallin (human) (UniProt P07320); experiment: non-reducing SDS-PAGE; 1 mg/ml HGDC in 5 mM sodium phosphate pH 7.0, not irradiated (0 min); 15% gel, sample buffer without β-mercaptoethanol; both purified
[2] = target: T1, recombinant human γD-crystallin (human), P07320; experiment: non-reducing SDS-PAGE; 1 mg/ml HGDC in 5 mM sodium phosphate pH 7.0, UV-C irradiated (254 nm, 1,850 μW/cm^2) for 10-60 min; 15% gel, sample buffer without β-mercaptoethanol; band intensities by Image-J; both purified; conditions: remark: other sources report otherwise
T1 chain: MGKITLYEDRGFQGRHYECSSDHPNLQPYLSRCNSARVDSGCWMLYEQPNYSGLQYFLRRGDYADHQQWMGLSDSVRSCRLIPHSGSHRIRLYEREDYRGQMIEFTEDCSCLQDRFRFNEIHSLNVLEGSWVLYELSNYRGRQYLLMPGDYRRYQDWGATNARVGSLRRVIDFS

binding [1]: binds weakly
Molecule: recombinant human γD-crystallin (from UniProt P07320 1-174)

binding [2]: binds
B1: recombinant human γD-crystallin, P07320 1-174 (natural protein)
chain: T1 chain
